The other results are listed elsewhere or left out. Further columns of the screen follow, without active or inactive calls. Most of these compounds were active or inconclusive in the main read-out, so they are no random draw. Potencies come from curve fits of mixed quality, noted in brackets.

A short description of this assay: IkB Signaling. As to conditions: ABC-DLBCL IkBa-CBG/CBR dual luciferase ratio (green luciferase fused to IkBa over red control in OCI-Ly3 lymphoma cells), 4 h; measured here: control luc red channel unless noted. Put shortly:
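Curves were fitted separately to fusion (green), unfused (red) and ratio luminescence, then classed by r2, magnitude and activity. Cells: OCI-Ly3, 4 h compound plus doxycycline at 37C; 10 uM MG-132 defined full response.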
The term AC50 denotes the concentration giving half of the maximal activity seen. Consider `Cc1nn(C(=O)COc2ccc(Cl)cc2)c(C)c1Sc1ccccc1`, for which the AC50 is 12.6 µM [falling, partial curve].
With `CCOC(=O)c1ccc(NC(=O)CC2C(=O)N(c3ccccc3)C(=O)N2Cc2ccc(C)cc2)cc1` (configuration not stated) the figure was 12.6 µM [falling, partial curve].
In the case of `COc1ccc(C(=O)Nc2cnc3ccccn3c2=O)cc1`, the AC50 is 10 µM [falling, partial curve].
`CCOC(=O)c1c(NC(=O)c2ccc(S(=O)(=O)N3CCC(C)CC3)cc2)sc2c1CCN(C(C)C)C2`: the AC50 was 25.1 µM [falling, single point].
Take `Cc1ccc2[nH]c(=O)c(CN(CCN3CCOCC3)C(=O)Nc3ccc(F)cc3)cc2c1`: the AC50 was 25.1 µM [falling, single point].
For `O=C(NCc1ccc(F)cc1)c1c2c(nc3ccccc13)C(=O)N(C1CCCCC1)C2`, the concentration at half-maximal activity (AC50) is 20 µM [falling, partial curve].
As to `Cc1cccc(CCNC(=O)C2CCC(CNS(=O)(=O)c3c(C)cc(C)cc3C)CC2)c1` (configuration not stated), the AC50 was 15.8 µM [falling, partial curve].
Take `O=C(Cc1ccc(NC(=O)N2CCCCc3ccccc32)cc1)NCc1ccccc1Br`: the AC50 is 15.8 µM [falling, partial curve].
With `N#Cc1ccc(OC(=O)c2cc(-c3ccc(Cl)cc3)on2)cc1` the figure was 39.8 µM [falling, single point]; with `Cc1ccc(NC(=O)CN(C)S(=O)(=O)c2ccc3c(c2)n(C)c(=O)c(=O)n3C)c(C)c1`, 25.1 µM [falling, single point]; with `O=C(CSc1nnc(CNc2ccc(Cl)cc2)n1Cc1ccccc1)NCc1ccco1`, 15.8 µM [falling, partial curve].
With `O=C(CSc1nnc2scc(-c3ccccc3)n12)Nc1ccc(Cl)cc1` the figure was 39.8 µM [falling, single point].
For the molecule `CCOC(=O)c1ccc(NC(=O)c2ccc(CN3C(=O)CCn4nc(C)cc43)cc2)cc1`, the AC50 was 0.2 µM [rising, full curve].
As for `O=C(Cn1c(=O)c2ccccc2n2nncc12)Nc1cccc(F)c1`, the AC50 was 2.51 µM [falling, full curve].
In the case of `CC1CCN(c2ccc(-c3nc(-c4ccccc4)no3)cc2[N+](=O)[O-])CC1`, the AC50 is 12.6 µM [falling, partial curve].
As to `Cc1ccccc1Cn1cnc2nc3c(cc2c1=O)CC(C)CC3` (configuration not stated), the AC50 was 0.501 µM [rising, partial curve].
`Cc1cc(N2CCCCC2)nc2ccc(NC(=O)/C=C/c3ccc(OCCC(C)C)cc3)cc12`: the AC50 was 0.0158 µM [rising, full curve].

The values above are taken from PubChem BioAssay AID445 (National Center for Advancing Translational Sciences (NCATS), 2006).
